Test results taken from doi:10.1101/625533.
No constants are given. Whether binding was seen depends on the method and setting. Binding seen in cells or lysates may run through a third protein. Some results given as binding are weak or reduced against the parent protein; the word gives no strength. Where a sequence is shown, tags or fusion partners need not be part of it.

T1: wild-type mouse prestin, tagged with Venus or CFP (mouse), Q99NH7
T1 chain: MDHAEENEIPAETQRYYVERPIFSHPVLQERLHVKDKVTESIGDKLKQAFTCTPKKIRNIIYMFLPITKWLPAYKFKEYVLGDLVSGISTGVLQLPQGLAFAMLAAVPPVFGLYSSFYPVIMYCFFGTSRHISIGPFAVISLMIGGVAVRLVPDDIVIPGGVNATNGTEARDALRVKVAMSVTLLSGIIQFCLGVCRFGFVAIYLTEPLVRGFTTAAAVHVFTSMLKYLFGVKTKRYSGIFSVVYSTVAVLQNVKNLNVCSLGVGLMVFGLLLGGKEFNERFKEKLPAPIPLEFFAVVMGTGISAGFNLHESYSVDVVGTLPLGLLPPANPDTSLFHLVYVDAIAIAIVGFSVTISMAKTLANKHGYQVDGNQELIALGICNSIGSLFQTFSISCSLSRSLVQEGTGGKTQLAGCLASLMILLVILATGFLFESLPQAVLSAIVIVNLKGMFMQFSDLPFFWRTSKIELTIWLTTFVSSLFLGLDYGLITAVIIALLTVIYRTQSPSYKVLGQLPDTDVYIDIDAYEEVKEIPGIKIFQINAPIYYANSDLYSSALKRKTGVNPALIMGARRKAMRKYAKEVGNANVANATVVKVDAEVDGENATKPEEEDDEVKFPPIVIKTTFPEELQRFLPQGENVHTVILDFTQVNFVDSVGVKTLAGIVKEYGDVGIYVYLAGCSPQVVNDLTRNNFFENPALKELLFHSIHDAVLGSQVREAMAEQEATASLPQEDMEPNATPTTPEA


Key:
[1] = biological target: mouse prestin carrying N7T and N308S, tagged with Venus or CFP (mouse) (UniProt Q99NH7); test: FRET or BRET
[2] = biological target: T1, wild-type mouse prestin, tagged with …; test: FRET or BRET; conditions: remark: other sources report otherwise

Binder | binding [1] | binding [2]
mouse prestin carrying N7T and N308S, tagged with Venus or CFP (protein, UniProt Q99NH7 1-744) MDHAEETEIPAETQRYYVERPIFSHPVLQERLHVKDKVTESIGDKLKQAFTCTPKKIRNIIYMFLPITKWLPAYKFKEYVLGDLVSGISTGVLQLPQGLAFAMLAAVPPVFGLYSSFYPVIMYCFFGTSRHISIGPFAVISLMIGGVAVRLVPDDIVIPGGVNATNGTEARDALRVKVAMSVTLLSGIIQFCLGVCRFGFVAIYLTEPLVRGFTTAAAVHVFTSMLKYLFGVKTKRYSGIFSVVYSTVAVLQNVKNLNVCSLGVGLMVFGLLLGGKEFNERFKEKLPAPIPLEFFAVVMGTGISAGFSLHESYSVDVVGTLPLGLLPPANPDTSLFHLVYVDAIAIAIVGFSVTISMAKTLANKHGYQVDGNQELIALGICNSIGSLFQTFSISCSLSRSLVQEGTGGKTQLAGCLASLMILLVILATGFLFESLPQAVLSAIVIVNLKGMFMQFSDLPFFWRTSKIELTIWLTTFVSSLFLGLDYGLITAVIIALLTVIYRTQSPSYKVLGQLPDTDVYIDIDAYEEVKEIPGIKIFQINAPIYYANSDLYSSALKRKTGVNPALIMGARRKAMRKYAKEVGNANVANATVVKVDAEVDGENATKPEEEDDEVKFPPIVIKTTFPEELQRFLPQGENVHTVILDFTQVNFVDSVGVKTLAGIVKEYGDVGIYVYLAGCSPQVVNDLTRNNFFENPALKELLFHSIHDAVLGSQVREAMAEQEATASLPQEDMEPNATPTTPEA | binds | 
wild-type mouse prestin, tagged with Venus or CFP, Q99NH7 1-744 (protein) MDHAEENEIPAETQRYYVERPIFSHPVLQERLHVKDKVTESIGDKLKQAFTCTPKKIRNIIYMFLPITKWLPAYKFKEYVLGDLVSGISTGVLQLPQGLAFAMLAAVPPVFGLYSSFYPVIMYCFFGTSRHISIGPFAVISLMIGGVAVRLVPDDIVIPGGVNATNGTEARDALRVKVAMSVTLLSGIIQFCLGVCRFGFVAIYLTEPLVRGFTTAAAVHVFTSMLKYLFGVKTKRYSGIFSVVYSTVAVLQNVKNLNVCSLGVGLMVFGLLLGGKEFNERFKEKLPAPIPLEFFAVVMGTGISAGFNLHESYSVDVVGTLPLGLLPPANPDTSLFHLVYVDAIAIAIVGFSVTISMAKTLANKHGYQVDGNQELIALGICNSIGSLFQTFSISCSLSRSLVQEGTGGKTQLAGCLASLMILLVILATGFLFESLPQAVLSAIVIVNLKGMFMQFSDLPFFWRTSKIELTIWLTTFVSSLFLGLDYGLITAVIIALLTVIYRTQSPSYKVLGQLPDTDVYIDIDAYEEVKEIPGIKIFQINAPIYYANSDLYSSALKRKTGVNPALIMGARRKAMRKYAKEVGNANVANATVVKVDAEVDGENATKPEEEDDEVKFPPIVIKTTFPEELQRFLPQGENVHTVILDFTQVNFVDSVGVKTLAGIVKEYGDVGIYVYLAGCSPQVVNDLTRNNFFENPALKELLFHSIHDAVLGSQVREAMAEQEATASLPQEDMEPNATPTTPEA |  | no binding
